The other results are listed elsewhere or left out.
Experiment: beta-catenin nuclear localization change in HeLa – imaging, HeLa cells, immunofluorescence, high-content, primary screen (AID 1665)
Conditions: HeLa beta-catenin nuclear translocation, measured here: cell count, cytotoxicity flag, at 5 µM
Outline: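 test system = HeLa cells, endogenous beta-catenin | dosing = single 5 µM dose plus 0.02–20 µM confirmation series | times = compound treatment 24 h, 37°C, 5% CO2 | technique = beta-catenin immunofluorescence imaging with DAPI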

**Q.** Which cell count does the source give for `COc1ccccc1OP(C)(=O)Nc1ccc(C)cc1` (stereo unspecified) here?
**A.** 938 cells

Reference: PubChem BioAssay AID1665 (Sanford-Burnham Center for Chemical Genomics, 2009)
